The source of these data is patent US20170218379A1.

Sequences of proteins named here, by UniProt entry; tags and fusion partners are left off. A change or cut given only in a name is not applied to a line headed by its entry.
UniProt P03023: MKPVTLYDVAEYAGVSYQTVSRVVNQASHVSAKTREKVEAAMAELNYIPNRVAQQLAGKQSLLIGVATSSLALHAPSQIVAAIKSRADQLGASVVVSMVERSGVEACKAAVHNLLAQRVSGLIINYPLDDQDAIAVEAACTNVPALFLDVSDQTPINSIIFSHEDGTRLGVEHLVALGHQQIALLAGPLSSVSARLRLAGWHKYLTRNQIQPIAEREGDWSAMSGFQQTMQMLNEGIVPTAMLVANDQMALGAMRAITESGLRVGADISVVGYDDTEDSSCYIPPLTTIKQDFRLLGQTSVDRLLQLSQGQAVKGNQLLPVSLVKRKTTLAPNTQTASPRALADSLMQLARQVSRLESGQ

The target in test [1] is EuLac dimeric lac repressor (lacI lacking the 11 C-terminal residues) with 6x Histidine tag (E. coli, strain K12) (UniProt P03023). Description: native (blue native) gel electrophoresis of purified His-tagged protein; self-association to a dimer.
Test [2] addresses EuLacTet lac repressor (tetrameric lacI repressor) with 6x Histidine tag (E. coli, strain K12) (UniProt P03023). Description: native (blue native) gel electrophoresis of purified His-tagged protein; self-association to a tetramer.
Test [3] has the same target. Put plainly: native gel electrophoresis; self-association to a tetramer.

Results are given in words; binding and its absence hold for the method and conditions named. Some binding calls cover weakened binding; strength is not graded here.

Regarding “EuLac dimeric lac repressor (lacI lacking the 11 C-terminal residues) with 6x Histidine tag (from UniProt P03023 1-349)”, in test [1], the binding result was “binds”. As to “EuLacTet lac repressor (tetrameric lacI repressor) with 6x Histidine tag (from UniProt P03023 1-360)”, the binding entry in test [2] and in test [3] was “binds” in each case.
